Results are given in words; binding and its absence hold for the method and conditions named. In cells and extracts the contact can be indirect. These calls come from enrichment with a bait or labelling near it, and not all partners need be listed.
T1: SWC4 (S. pombe) (S. pombe) (UniProt O14308)
T1 sequence: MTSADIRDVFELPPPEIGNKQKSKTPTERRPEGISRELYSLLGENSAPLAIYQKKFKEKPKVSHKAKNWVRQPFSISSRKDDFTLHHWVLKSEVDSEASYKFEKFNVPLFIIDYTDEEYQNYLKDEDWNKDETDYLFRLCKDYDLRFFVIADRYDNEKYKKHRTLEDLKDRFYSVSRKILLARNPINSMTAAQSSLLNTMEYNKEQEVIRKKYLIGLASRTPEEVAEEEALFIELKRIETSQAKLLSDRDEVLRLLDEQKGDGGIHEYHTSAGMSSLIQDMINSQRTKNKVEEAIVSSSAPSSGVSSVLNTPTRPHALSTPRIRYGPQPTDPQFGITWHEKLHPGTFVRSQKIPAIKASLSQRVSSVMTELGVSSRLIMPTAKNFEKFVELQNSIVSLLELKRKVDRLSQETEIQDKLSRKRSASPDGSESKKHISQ

T2: YAF9 (S. pombe) (S. pombe) (UniProt Q10319)
T2 sequence: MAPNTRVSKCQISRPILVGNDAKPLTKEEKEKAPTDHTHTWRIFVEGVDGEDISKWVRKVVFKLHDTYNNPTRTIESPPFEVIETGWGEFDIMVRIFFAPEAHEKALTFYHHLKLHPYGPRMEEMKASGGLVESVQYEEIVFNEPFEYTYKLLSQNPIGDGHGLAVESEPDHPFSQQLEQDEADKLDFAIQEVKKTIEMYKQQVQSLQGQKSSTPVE

T3: Sc_Rpd3p (S. cerevisiae) (UniProt P32561)
T3 sequence: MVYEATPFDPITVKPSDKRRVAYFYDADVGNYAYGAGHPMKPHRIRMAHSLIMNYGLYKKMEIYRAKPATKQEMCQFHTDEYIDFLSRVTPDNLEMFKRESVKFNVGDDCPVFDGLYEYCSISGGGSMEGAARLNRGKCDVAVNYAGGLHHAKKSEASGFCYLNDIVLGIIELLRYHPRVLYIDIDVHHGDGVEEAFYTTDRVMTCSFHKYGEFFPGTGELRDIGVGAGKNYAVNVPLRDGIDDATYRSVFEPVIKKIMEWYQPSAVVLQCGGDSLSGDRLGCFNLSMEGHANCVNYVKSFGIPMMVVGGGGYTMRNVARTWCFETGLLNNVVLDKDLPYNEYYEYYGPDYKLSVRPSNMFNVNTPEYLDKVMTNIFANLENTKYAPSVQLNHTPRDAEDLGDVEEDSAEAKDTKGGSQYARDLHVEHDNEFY

B1: SWC2 (S. pombe) (protein, UniProt Q9P790 1-316)
chain: MSATESLVAGRTRRANAGNKMRELLEKEHLRMTQQNAEIEKEDEEYNIEEEEEAERDIEISSESSDEEAELKKLEEEGEEVEKILRDEERIKKRKIQKNRAANLQRTLQPPKRPTPSAASEVPKKKYKKIKVDPSARRTSSRMHTVLMAQSTETRLQEAKPRRKYTVSASANRQKGTMTQQQRFEEAAKTEAQNLSSLRNYVHLEEQRRLRLKRNAAKHRQLREPILKFISKTISTEDGREASNYYVAPLEHPLCHSAPPLQMPQHRAVECVITGKPAIYLDPVTQLPISNVQAFQQVREVYNQRYSWSAMLNLFH
B2: Sc_Rco1 (protein, UniProt Q04779 1-684)
chain: MDTSKKDTTRSPSHSNSSSPSSSSLSSSSSKEKKRPKRLSSQNVNYDLKRRKIITSEGIERSFKNEHSNLAVEDNIPEEEPKELLEKDSKGNIIKLNEPSTISEDSKVSVTGLPLNKGPSEKIKRESLWNYRKNLGGQSNNSEMTLVPSKRFTQVPKNFQDLNRNDLKTFLTENMTEESNIRSTIGWNGDIINRTRDREPESDRDNKKLSNIRTKIILSTNATYDSKSKLFGQNSIKSTSNASEKIFRDKNNSTIDFENEDFCSACNQSGSFLCCDTCPKSFHFLCLDPPIDPNNLPKGDWHCNECKFKIFINNSMATLKKIESNFIKQNNNVKIFAKLLFNIDSHNPKQFQLPNYIKETFPAVKTGSRGQYSDENDKIPLTDRQLFNTSYGQSITKLDSYNPDTHIDSNSGKFLICYKCNQTRLGSWSHPENSRLIMTCDYCQTPWHLDCVPRASFKNLGSKWKCPLHSPTKVYKKIHHCQEDNSVNYKVWKKQRLINKKNQLYYEPLQKIGYQNNGNIQIIPTTSHTDYDFNQDFKITQIDENSIKYDFFDKIYKSKMVQKRKLFQFQESLIDKLVSNGSQNGNSEDNMVKDIASLIYFQVSNNDKSSNNKSASKSNNLRKLWDLKELTNVVVPNELDSIQFNDFSSDEIKHLLYLKKIIESKPKEELLKFLNIENPENQSE
B3: Sc_Ume1p (protein, UniProt Q03010 1-460)
chain: MSTLDIAEDNKIKNEEFKIWKKSIPSLYQHISSLKPIFGSGVDESPSTLRSIVFTNDSSCNKSKGVLSVPLLYSQGSEIFEVDCIVPLGLHYKKPESISEPLVQPDYTMESQKVEQTVLIPKWEFKGETIAKMIYVDNSEINVKVIALSTNGSLAWFREGVKSPVYTMMEPSTSLSSASSGNQNKPCVDFAISNDSKTLTVTKEKHLDNENATIKLIDNSGKIGEVLRTIPVPGIKNIQEIKFLNNQIFATCSDDGIIRFWGNEIGKKPLWILNDSLDGKTTCFAASPFVDTLFMTGTSGGALKVWDIRAVIALGDADAELNINQGHNKVNELFKVHHFYSEQVSKIEFSSISPMEVVTIGGLGNVYHWNFEPVFAIYNEIHEDFQGIISDELEAESMAFYHTEGCRREIGENNKVNTVAYHKYIEDLVATVDSDGLLTVYKPFTGKVLDGSREVGAAKS
B4: Sc_Cti6 (protein, UniProt Q08923 1-506)
chain: MESTAIVPKGPVVGSEDMEKAEVIASGSTDIISTTSTATTTAAIGSVQEESVKQEDVPMEGGEGEVEEEEGETRCICGELDTPDDSGFFIQCEQCSSWQHGYCVSITQDNAPDKYWCEQCRPELHQLFTTDTGEARSIYKPVQEKRRQSRRKARSAAASKSHAANEAEKSPRNTSNTDDNVDDIGDEEDEVEDEASAVALAKDGNTRSSRRRRRNSMDDASTDQYSLDPGDSDKKLLDRKRATFMAREEKQYQRMLEKALKESRRTSHQEDPESYENDADIYQGDTDNHNGTTRLQTDVMLTEGKPDSVTNDDMKESLRPSKEQSMEKTNDVEKEASQEKESSTGSAQDTEKTDEPILPLTSISSSEDDSRKASSRGSKRVSKPARKGNRTRRSNTSSDTNQNRRSADIGTDKPVKPRLPPQRTSLNEMRRRVSAILEFISRTQWELSEDQSDREEFVRFVENQHFVEKVDTIYNGYNESLSMMDDLTRELLLWEKKYSNNTNAIQ
B5: Sc_Pho23 (protein, UniProt P50947 1-330)
chain: MSSPANLFPGLNDITDVLEEFPLATSRYLTLLHEIDAKCVHSMPNLNERIDKFLKKDFNKDHQTQVRLLNNINKIYEELMPSLEEKMHVSSIMLDNLDRLTSRLELAYEVAIKNTEIPRGLRLGVDNHPAMHLHHELMEKIESKSNSKSSQALKSESRREAMAANRRQGEHYSASTHQQDDSKNDANYGGSRHESQDHTGNNTNSRKRANAANTNNADPETKKRKRRVATTAVSPSTISTATAVNNGRIGTSTASRGVSSVGNSNNSRISRPKTNDYGEPLYCYCNQVAYGEMVGCDGADCELEWFHLPCIGLETLPKGKWYCDDCKKKL
B6: RXT3 (S. cerevisiae) (protein, UniProt Q07458 1-294)
chain: MSVSEQDPNRAYRETQSQIYKLQETLLNSARTKNKQEEGQESNTHSFPEQYMHYQNGRNSAYDLPNVSSQSVLAFTEKHYPNKLKNLGTLYYNRFKEGSFDEDSTSYSDRHSFPYNLYDNTLPPPFLPAIGIQNINNIATLKITYEDIQASFNNIESPRKRNNEIWGCDIYSDDSDPILVLRHCGFKIGAPSGGSFHKLRRTPVNVTNQDNVTGNLPLLEGTPFDLEVELLFLPTLQKYPSVKRFDITSREWGSEATVIHDGLSYGIYSIVIKQRLDRDKPHEPNGYIKNLKWT
B7: SDS3 (S. cerevisiae) (protein, UniProt P40505 1-327)
chain: MAIQKVSNKDLSRKDKRRFNIESKVNKIYQNFYSERDNQYKDRLTALQTDLTSLHQGDNGQYARQVRDLEEERDLELVRLRLFEEYRVSRSGIEFQEDIEKAKAEHEKLIKLCKERLYSSIEQKIKKLQEERLLMDVANVHSYAMNYSRPQYQKNTRSHTVSGWDSSSNEYGRDTANESATDTGAGNDRRTLRRRNASKDTRGNNNNQDESDFQTGNGSGSNGHGSRQGSQFPHFNNLTYKSGMNSDSDFLQGINEGTDLYAFLFGEKNPKDNANGNEKKKNRGAQRYSTKTAPPLQSLKPDEVTEDISLIRELTGQPPAPFRLRSD
B8: DEP1 (S. cerevisiae) (protein, UniProt P31385 1-405)
chain: MSQQTPQESEQTTAKEQDLDQESVLSNIDFNTDLNHNLNLSEYCISSDAGTEKMDSDEEKSLANLPELKYAPKLSSLVKQETLTESLKRPHEDEKEAIDEAKKMKVPGENEDESKEEEKSQELEEAIDSKEKSTDARDEQGDEGDNEEENNEEDNENENEHTAPPALVMPSPIEMEEQRMTALKEITDIEYKFAQLRQKLYDNQLVRLQTELQMCLEGSHPELQVYYSKIAAIRDYKLHRAYQRQKYELSCINTETIATRTFIHQDFHKKVTDLRARLLNRTTQTWYDINKERRDMDIVIPDVNYHVPIKLDNKTLSCITGYASAAQLCYPGEPVAEDLACESIEYRYRANPVDKLEVIVDRMRLNNEISDLEGLRKYFHSFPGAPELNPLRDSEINDDFHQWAQ
B9: SAP30 (S. cerevisiae) (protein, UniProt P38429 1-201)
chain: MARPVNTNAETESRGRPTQGGGYASNNNGSCNNNNGSNNNNNNNNNNNNNSNNSNNNNGPTSSGRTNGKQRLTAAQQQYIKNLIETHITDNHPDLRPKSHPMDFEEYTDAFLRRYKDHFQLDVPDNLTLQGYLLGSKLGAKTYSYKRNTQGQHDKRIHKRDLANVVRRHFDEHSIKETDCIPQFIYKVKNQKKKFKMEFRG
B10: UME6 (S. cerevisiae) (protein, UniProt P39001 1-836)
chain: MLDKARSQSKHMDESNAAASLLSMETTANNHHYLHNKTSRATLMNSSQDGKKHAEDEVSDGANSRHPTISSASIESLKTTYDENPLLSIMKSTCAPNNTPVHTPSGSPSLKVQSGGDIKDDPKENDTTTTTNTTLQDRRDSDNAVHAAASPLAPSNTPSDPKSLCNGHVAQATDPQISGAIQPQYTATNEDVFPYSSTSTNSNTATTTIVAGAKKKIHLPPPQAPAVSSPGTTAAGSGAGTGSGIRSRTGSDLPLIITSANKNNGKTTNSPMSILSRNNSTNNNDNNSIQSSDSRESSNNNEIGGYLRGGTKRGGSPSNDSQVQHNVHDDQCAVGVAPRNFYFNKDREITDPNVKLDENESKINISFWLNSKYRDEAYSLNESSSNNASSNTDTPTNSRHANTSSSITSRNNFQHFRFNQIPSQPPTSASSFTSTNNNNPQRNNINRGEDPFATSSRPSTGFFYGDLPNRNNRNSPFHTNEQYIPPPPPKYINSKLDGLRSRLLLGPNSASSSTKLDDDLGTAAAVLSNMRSSPYRTHDKPISNVNDMNNTNALGVPASRPHSSSFPSKGVLRPILLRIHNSEQQPIFESNNSTAVFDEDQDQNQDLSPYHLNLNSKKVLDPTFESRTRQVTWNKNGKRIDRRLSAPEQQQQLEVPPLKKSRRSVGNARVASQTNSDYNSLGESSTSSAPSSPSLKASSGLAYTADYPNATSPDFAKSKGKNVKPKAKSKAKQSSKKRPNNTTSKSKANNSQESNNATSSTSQGTRSRTGCWICRLRKKKCTEERPHCFNCERLKLDCHYDAFKPDFVSDPKKKQMKLEEIKKKTKEAKRRAMKKK

The binders below were run against T1, SWC4 (S. pombe) (S. pombe) (assay: affinity purification with mass spectrometry; TAP of baits TAP-tagged at their genes from S. pombe extracts; eluates on 6-18% gels, Coomassie, bands and slices identified by MALDI peptide mapping and LC-MS/MS; common background removed, A-index cut-off 1.75).

binding, binds:
B1

These binders were tested against T2, YAF9 (S. pombe) (S. pombe) in the same assay as above.

binding, binds:
B1

The binders below were run against T3, Sc_Rpd3p (S. cerevisiae) (assay: affinity purification with mass spectrometry; TAP of baits TAP-tagged at their genes from S. cerevisiae extracts; eluates on 6-18% gels, Coomassie, bands and slices identified by MALDI peptide mapping and LC-MS/MS; common background removed, A-index cut-off 1.75).

binding, binds:
B2
B3
B4
B5
B6
B7
B8
B9
B10

— paper PMC2614481
